# In PubChem BioAssay AID743238 (Broad Institute, 2013):
# Out of some 360,000 compounds screened, about 200 (0.056%) were called active. This list was built around the results that the source calls inconclusive (neither active nor inactive); the mix of calls is not that of the screen.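 Rule for the calls: active = mean normalized replicate activation at least 10% and every replicate at or above 10%; inconclusive = only one of the two criteria met; inactive = mean below 10% and not all replicates reach 10%.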
# Test: activators of inactive X chromosome reactivation, primary screen, imaging, XiGFP fibroblasts, GFP high-content imaging, set 2 (AID 743238);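 note: 0% = median of on-plate neutral control wells and 100% = ellipticine 6 µM median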
# Conditions: XiGFP mouse fibroblasts, % GFP-positive cells imaging, 3 d; at 7.58 µM; stronger effect = higher value; cells co-treated with 5-aza-dC sensitizer; scaled so ellipticine positive control = 100%
# Outline: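 Material: XiGFP fibroblasts, SV40-immortalized. Buffer or medium: DMEM plus 5-aza-dC sensitizer. Compound: single concentration per compound, delivered by pin transfer. Times: 3 days compound exposure. Controls: ellipticine 6 µM.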
row,Compound,activation
1,O=C(NC1CCCC1)c1cccc2c1C(=O)c1ccc(/C=C/c3ccccc3)cc1S2(=O)=O,active: 14%
2,CCC(C)C(NC(N)=O)C(=O)Nc1ccc(C(=O)OC)cc1 (stereo not drawn),inactive: 0.0935%
3,COc1ccc(NC(=O)COc2ccc(C)c(C)c2)cc1S(=O)(=O)N1CCCCC1,inconclusive: 28.8%
4,COc1ccccc1OCCOc1ccc(/C=C2\C(=N)N3N=C(S(C)(=O)=O)SC3=NC2=O)cc1,inconclusive: 15.3%
5,C[C@@H]1CN(C)C(=O)Cc2cc(N(C)C)ccc2O[C@@H]1CN(C)S(C)(=O)=O,inconclusive: 10.6%
6,CC(C)c1ccc(/C=N/N2CCN(c3ccccn3)CC2)cc1,inactive: 0.0205%
7,C=CCN(CC(O)c1cccc([N+](=O)[O-])c1)C(C)CCc1ccccc1 (stereo not drawn),inconclusive: 19.3%
8,CCOCCCn1c(=NC(C)=O)c(C#N)cc2c(=O)n3cccc(C)c3nc21,inconclusive: 12.4%
9,NNc1nc2c(-c3ccc(F)cc3)nnn2c2ccccc12,inconclusive: 50.4%
10,CN(C)CCN(Cc1ccc(Cl)cc1)c1ccccn1,active: 14.6%
11,COCCNC(=O)C[C@@H]1CC[C@@H](NS(=O)(=O)c2ccc(C)cc2)[C@@H](CO)O1,inactive: 0.864%
12,COc1ccc(CN(C)C[C@@H]2Oc3c(NC(=O)Nc4ccc(C(F)(F)F)cc4)cccc3C(=O)N([C@H](C)CO)C[C@H]2C)cc1,inactive: -0.419%
13,O=C(O)CCn1c(CO)nc2ccccc21,inconclusive: 46%
14,Cc1ccc(Cl)c2c(N=Nc3ccccc3)c(O)[nH]c12,active: 26.7%
15,CCOC(=O)c1ccc(NC(=O)C2(N3C(=O)c4ccccc4C3=O)CCCC2)cc1,inconclusive: 47.5%
16,O=C1CCCC(O)=C1Sc1cc(Cl)c(Cl)cc1Cl,inconclusive: 18.1%
17,CC(=O)Nc1sc(N/N=C/c2ccc(N(C)C)cc2)nc1-c1ccc(C)cc1,inconclusive: 14.8%
18,NC(=S)Nc1ccc(Cl)cc1Cl,inconclusive: 17.9%
19,CC(C)NC(=O)N(C)C[C@@H]1Oc2c(NC(=O)c3nc4ccccc4s3)cccc2C(=O)N([C@@H](C)CO)C[C@@H]1C,inactive: 0.034%
20,Cc1ccc(NC(=O)c2cc(N3C(=O)C=CC3=O)ccc2N2CCOCC2)cc1Cl,inconclusive: 14.8%
21,O=C(N/N=C/c1ccc([N+](=O)[O-])o1)c1cc2ccccc2o1,inconclusive: 26.3%
22,CCCNC(=O)Nc1ccc2c(c1)C(=O)N(C)C[C@H](OC)[C@H](C)CN(C(=O)CC)[C@H](C)CO2,inactive: 0.203%
23,Cc1ccc(S(=O)(=O)Nc2ccc3c(c2)C(=O)N([C@@H](C)CO)C[C@@H](C)[C@H](CN(C)S(=O)(=O)c2ccccc2)OCCCC[C@H](C)O3)cc1,inactive: 0.28%

# An excerpt from above in order of length of the SMILES, low to high:
row,Compound,activation
18,NC(=S)Nc1ccc(Cl)cc1Cl,inconclusive: 17.9%
13,O=C(O)CCn1c(CO)nc2ccccc21,inconclusive: 46%
4,COc1ccccc1OCCOc1ccc(/C=C2\C(=N)N3N=C(S(C)(=O)=O)SC3=NC2=O)cc1,inconclusive: 15.3%
